{"source": "patent US12729225B2", "about": "“Non-canonical SWI/SNF complex and uses thereof” (Dana-Farber Cancer Institute, Inc., priority 2018, dated 2026)", "molecules": {"B1": {"name": "DHX15 (protein)", "chain": "MSKRHRLDLGEDYPSGKKRAGTDGKDRDRDRDREDRSKDRDRERDRGDREREREKEKEKELRASTNAMLISAGLPPLKASHSAHSTHSAHSTHSTHSAHSTHAGHAGHTSLPQCINPFTNLPHTPRYYDILKKRLQLPVWEYKDRFTDILVRHQSFVLVGETGSGKTTQIPQWCVEYMRSLPGPKRGVACTQPRRVAAMSVAQRVADEMDVMLGQEVGYSIRFEDCSSAKTILKYMTDGMLLREAMNDPLLERYGVIILDEAHERTLATDILMGVLKEVVRQRSDLKVIVMSATLDAGKFQIYFDNCPLLTIPGRTHPVEIFYTPEPERDYLEAAIRTVIQIHMCEEEEGDLLLFLTGQEEIDEACKRIKREVDDLGPEVGDIKIIPLYSTLPPQQQQRIFEPPPPKKQNGAIGRKVVVSTNIAETSLTIDGVVFVIDPGFAKQKVYNPRIRVESLLVTAISKASAQQRAGRAGRTRPGKCFRLYTEKAYKTEMQDNTYPEILRSNLGSVVLQLKKLGIDDLVHFDFMDPPAPETLMRALELLNYLAALNDDGDLTELGSMMAEFPLDPQLAKMVIASCDYNCSNEVLSITAMLSVPQCFVRPTEAKKAADEAKMRFAHIDGDHLTLLNVYHAFKQNHESVQWCYDNFINYRSLMSADNVRQQLSRIMDRFNLPRRSTDFTSRDYYINIRKALVTGYFMQVAHLERTGHYLTVKDNQVVQLHPSTVLDHKPEWVLYNEFVLTTKNYIRTCTDIKPEWLVKIAPQYYDMSNFPQCEAKRQLDRIIAKLQSKEYSQY"}, "B2": {"name": "WDR33 (protein, UniProt Q9C0J8 2-1336, looked up)", "pre-mRNA 3' end processing …": "ATEIGSPPRFFHMPRFQHQAPRQLFYKRPDFAQQQAMQQLTFDGKRMRKAVNRKTIDYNPSVIKYLENRIWQRDQRDMRAIQPDAGYYNDLVPPIGMLNNPMNAVTTKFVRTSTNKVKCPVFVVRWTPEGRRLVTGASSGEFTLWNGLTFNFETILQAHDSPVRAMTWSHNDMWMLTADHGGYVKYWQSNMNNVKMFQAHKEAIREASFSPTDNKFATCSDDGTVRIWDFLRCHEERILRGHGADVKCVDWHPTKGLVVSGSKDSQQPIKFWDPKTGQSLATLHAHKNTVMEVKLNLNGNWLLTASRDHLCKLFDIRNLKEELQVFRGHKKEATAVAWHPVHEGLFASGGSDGSLLFWHVGVEKEVGGMEMAHEGMIWSLAWHPLGHILCSGSNDHTSKFWTRNRPGDKMRDRYNLNLLPGMSEDGVEYDDLEPNSLAVIPGMGIPEQLKLAMEQEQMGKDESNEIEMTIPGLDWGMEEVMQKDQKKVPQKKVPYAKPIPAQFQQAWMQNKVPIPAPNEVLNDRKEDIKLEEKKKTQAEIEQEMATLQYTNPQLLEQLKIERLAQKQVEQIQPPPSSGTPLLGPQPFPGQGPMSQIPQGFQQPHPSQQMPMNMAQMGPPGPQGQFRPPGPQGQMGPQGPPLHQGGGGPQGFMGPQGPQGPPQGLPRPQDMHGPQGMQRHPGPHGPLGPQGPPGPQGSSGPQGHMGPQGPPGPQGHIGPQGPPGPQGHLGPQGPPGTQGMQGPPGPRGMQGPPHPHGIQGGPGSQGIQGPVSQGPLMGLNPRGMQGPPGPRENQGPAPQGMIMGHPPQEMRGPHPPGGLLGHGPQEMRGPQEIRGMQGPPPQGSMLGPPQELRGPPGSQSQQGPPQGSLGPPPQGGMQGPPGPQGQQNPARGPHPSQGPIPFQQQKTPLLGDGPRAPFNQEGQSTGPPPLIPGLGQQGAQGRIPPLNPGQGPGPNKGDSRGPPNHHMGPMSERRHEQSGGPEHGPERGPFRGGQDCRGPPDRRGPHPDFPDDFSRPDDFHPDKRFGHRLREFEGRGGPLPQEEKWRRGGPGPPFPPDHREFSEGDGRGAARGPPGAWEGRRPGDERFPRDPEDPRFRGRREESFRRGAPPRHEGRAPPRGRDGFPGPEDFGPEENFDASEEAARGRDLRGRGRGTPRGGRKGLLPTPDEFPRFEGGRKPDSWDGNREPGPGHEHFRDTPRPDHPPHDGHSPASRERSSSLQGMDMASLPPRKRPWHDGPGTSEHREMEAPGGPSEDRGGKGRGGPGPAQRVPKSGRSSSLDGEHHDGYHRDEPFGGPPGSGTPSRGGRSGSNWGRGSNMNSGPPRRGASRGGGRGR"}, "B3": {"name": "HNRNPA1 (protein, UniProt P09651 1-372, looked up)", "Heterogeneous nuclear …": "MSKSESPKEPEQLRKLFIGGLSFETTDESLRSHFEQWGTLTDCVVMRDPNTKRSRGFGFVTYATVEEVDAAMNARPHKVDGRVVEPKRAVSREDSQRPGAHLTVKKIFVGGIKEDTEEHHLRDYFEQYGKIEVIEIMTDRGSGKKRGFAFVTFDDHDSVDKIVIQKYHTVNGHNCEVRKALSKQEMASASSSQRGRSGSGNFGGGRGGGFGGNDNFGRGGNFSGRGGFGGSRGGGGYGGSGDGYNGFGNDGGYGGGGPGYSGGSRGYGSGGQGYGNQGSGYGGSGSYDSYNNGGGGGFGGGSGSNFGGGGSYNDFGNYNNQSSNFGPMKGGNFGGRSSGPYGGGGQYFAKPRNQGGYGGSSSSSSYGSGRRF"}, "B4": {"name": "CANX (protein, UniProt P27824 21-592, looked up)", "Calnexin": "HDGHDDDVIDIEDDLDDVIEEVEDSKPDTTAPPSSPKVTYKAPVPTGEVYFADSFDRGTLSGWILSKAKKDDTDDEIAKYDGKWEVEEMKESKLPGDKGLVLMSRAKHHAISAKLNKPFLFDTKPLIVQYEVNFQNGIECGGAYVKLLSKTPELNLDQFHDKTPYTIMFGPDKCGEDYKLHFIFRHKNPKTGIYEEKHAKRPDADLKTYFTDKKTHLYTLILNPDNSFEILVDQSVVNSGNLLNDMTPPVNPSREIEDPEDRKPEDWDERPKIPDPEAVKPDDWDEDAPAKIPDEEATKPEGWLDDEPEYVPDPDAEKPEDWDEDMDGEWEAPQIANPRCESAPGCGVWQRPVIDNPNYKGKWKPPMIDNPSYQGIWKPRKIPNPDFFEDLEPFRMTPFSAIGLELWSMTSDIFFDNFIICADRRIVDDWANDGWGLKKAADGAAEPGVVGQMIEAAEERPWLWVVYILTVALPVFLVILFCCSGKKQTSGMEYKKTDAPQPDVKEEEEEKEEEKDKGDEEEEGEEKLEEKQKSDAEEDGGTVSQEEEDRKPKAEEDEILNRSPRNRKPRRE"}, "B5": {"name": "PYCR1 (protein, UniProt P32322 2-319, looked up)", "Pyrroline-5-carboxylate …": "SVGFIGAGQLAFALAKGFTAAGVLAAHKIMASSPDMDLATVSALRKMGVKLTPHNKETVQHSDVLFLAVKPHIIPFILDEIGADIEDRHIVVSCAAGVTISSIEKKLSAFRPAPRVIRCMTNTPVVVREGATVYATGTHAQVEDGRLMEQLLSSVGFCTEVEEDLIDAVTGLSGSGPAYAFTALDALADGGVKMGLPRRLAVRLGAQALLGAAKMLLHSEQHPGQLKDNVSSPGGATIHALHVLESGGFRSLLINAVEASCIRTRELQSMADQEQVSPAAIKKTILDKVKLDSPAGTALSPSGHTKLLPRSLAPAGKD"}, "B6": {"name": "DDX1 (protein, UniProt Q92499 1-740, looked up)", "ATP-dependent RNA helicase …": "MAAFSEMGVMPEIAQAVEEMDWLLPTDIQAESIPLILGGGDVLMAAETGSGKTGAFSIPVIQIVYETLKDQQEGKKGKTTIKTGASVLNKWQMNPYDRGSAFAIGSDGLCCQSREVKEWHGCRATKGLMKGKHYYEVSCHDQGLCRVGWSTMQASLDLGTDKFGFGFGGTGKKSHNKQFDNYGEEFTMHDTIGCYLDIDKGHVKFSKNGKDLGLAFEIPPHMKNQALFPACVLKNAELKFNFGEEEFKFPPKDGFVALSKAPDGYIVKSQHSGNAQVTQTKFLPNAPKALIVEPSRELAEQTLNNIKQFKKYIDNPKLRELLIIGGVAARDQLSVLENGVDIVVGTPGRLDDLVSTGKLNLSQVRFLVLDEADGLLSQGYSDFINRMHNQIPQVTSDGKRLQVIVCSATLHSFDVKKLSEKIMHFPTWVDLKGEDSVPDTVHHVVVPVNPKTDRLWERLGKSHIRTDDVHAKDNTRPGANSPEMWSEAIKILKGEYAVRAIKEHKMDQAIIFCRTKIDCDNLEQYFIQQGGGPDKKGHQFSCVCLHGDRKPHERKQNLERFKKGDVRFLICTDVAARGIDIHGVPYVINVTLPDEKQNYVHRIGRVGRAERMGLAISLVATEKEKVWYHVCSSRGKGCYNTRLKEDGGCTIWYNEMQLLSEIEEHLNCTISQVEPDIKVPVDEFDGKVTYGQKRAAGGGSYKGHVDILAPTVQELAALEKEAQTSFLHLGYLPNQLFRTF"}, "B7": {"name": "BCL7B (protein)", "chain": "MSGRSVRAETRSRAKDDIKKVMAAIEKVRKWEKKWVTVGDTSLRIFKWVPVTDSKEKEKSKSNSSAAREPNGFPSDASANSSLLLEFQDENSNQSSVSDVYQLKVDSSTNSSPSPQQSESLSPAHTSDFRTDDSQPPTLGQEILEEPSLPSSEVADEPPTLTKEEPVPLETQVVEEEEDSGAPPLKRFCVDQPTVPQTASES"}, "B8": {"name": "PHB (protein, UniProt P35232 2-272, looked up)", "Prohibitin 1": "AAKVFESIGKFGLALAVAGGVVNSALYNVDAGHRAVIFDRFRGVQDIVVGEGTHFLIPWVQKPIIFDCRSRPRNVPVITGSKDLQNVNITLRILFRPVASQLPRIFTSIGEDYDERVLPSITTEILKSVVARFDAGELITQRELVSRQVSDDLTERAATFGLILDDVSLTHLTFGKEFTEAVEAKQVAQQEAERARFVVEKAEQQKKAAIISAEGDSKAAELIANSLATAGDGLIELRKLEAAEDIAYQLSRSRNITYLPAGQSVLLQLPQ"}, "B9": {"name": "KRT2 (protein, UniProt P35908 1-639, looked up)", "Keratin, type II cytoskeletal …": "MSCQISCKSRGRGGGGGGFRGFSSGSAVVSGGSRRSTSSFSCLSRHGGGGGGFGGGGFGSRSLVGLGGTKSISISVAGGGGGFGAAGGFGGRGGGFGGGSSFGGGSGFSGGGFGGGGFGGGRFGGFGGPGGVGGLGGPGGFGPGGYPGGIHEVSVNQSLLQPLNVKVDPEIQNVKAQEREQIKTLNNKFASFIDKVRFLEQQNQVLQTKWELLQQMNVGTRPINLEPIFQGYIDSLKRYLDGLTAERTSQNSELNNMQDLVEDYKKKYEDEINKRTAAENDFVTLKKDVDNAYMIKVELQSKVDLLNQEIEFLKVLYDAEISQIHQSVTDTNVILSMDNSRNLDLDSIIAEVKAQYEEIAQRSKEEAEALYHSKYEELQVTVGRHGDSLKEIKIEISELNRVIQRLQGEIAHVKKQCKNVQDAIADAEQRGEHALKDARNKLNDLEEALQQAKEDLARLLRDYQELMNVKLALDVEIATYRKLLEGEECRMSGDLSSNVTVSVTSSTISSNVASKAAFGGSGGRGSSSGGGYSSGSSSYGSGGRQSGSRGGSGGGGSISGGGYGSGGGSGGRYGSGGGSKGGSISGGGYGSGGGKHSSGGGSRGGSSSGGGYGSGGGGSSSVKGSSGEAFGSSVTFSFR"}}, "system": "mSWI/SNF complexes", "assay": "mSWI/SNF complex purification with HA-tagged baits and mass spectrometry (peptide counts)", "set-up": "species or system human", "key": {"[1]": {"details": "293_HA-BRD7 bait purification, mass spectrometry, total peptides per co-purified protein"}, "[2]": {"details": "293_HA-BRD7 bait purification, mass spectrometry, unique peptides per co-purified protein"}}}
{"molecule": "B1", "values": [{"measurement": "Total", "setting": "[1]", "value": 3}, {"measurement": "Unique", "setting": "[2]", "value": 3}]}
{"molecule": "B2", "values": [{"measurement": "Total", "setting": "[1]", "value": 4}, {"measurement": "Unique", "setting": "[2]", "value": 3}]}
{"molecule": "B3", "values": [{"measurement": "Total", "setting": "[1]", "value": 4}, {"measurement": "Unique", "setting": "[2]", "value": 3}]}
{"molecule": "B4", "values": [{"measurement": "Total", "setting": "[1]", "value": 4}, {"measurement": "Unique", "setting": "[2]", "value": 3}]}
{"molecule": "B5", "values": [{"measurement": "Total", "setting": "[1]", "value": 3}, {"measurement": "Unique", "setting": "[2]", "value": 3}]}
{"molecule": "B6", "values": [{"measurement": "Total", "setting": "[1]", "value": 3}, {"measurement": "Unique", "setting": "[2]", "value": 3}]}
{"molecule": "B7", "values": [{"measurement": "Total", "setting": "[1]", "value": 4}, {"measurement": "Unique", "setting": "[2]", "value": 3}]}
{"molecule": "B8", "values": [{"measurement": "Total", "setting": "[1]", "value": 3}, {"measurement": "Unique", "setting": "[2]", "value": 3}]}
{"molecule": "B9", "values": [{"measurement": "Total", "setting": "293_HA-BRD7: HA-BRD7 bait purification, total peptide count per co-purified protein", "value": 31}, {"measurement": "Unique", "setting": "293_HA-BRD7: HA-BRD7 bait purification, unique peptide count per co-purified protein", "value": 25}]}
